From ChEMBL document CHEMBL3988442, “University of Dundee, Small-Polar-MMV Screening Library” (2021).

Protein sequences, listed by entry. Tags and fused reporters are not part of them.
UniProt E9BF75, entry or part of it: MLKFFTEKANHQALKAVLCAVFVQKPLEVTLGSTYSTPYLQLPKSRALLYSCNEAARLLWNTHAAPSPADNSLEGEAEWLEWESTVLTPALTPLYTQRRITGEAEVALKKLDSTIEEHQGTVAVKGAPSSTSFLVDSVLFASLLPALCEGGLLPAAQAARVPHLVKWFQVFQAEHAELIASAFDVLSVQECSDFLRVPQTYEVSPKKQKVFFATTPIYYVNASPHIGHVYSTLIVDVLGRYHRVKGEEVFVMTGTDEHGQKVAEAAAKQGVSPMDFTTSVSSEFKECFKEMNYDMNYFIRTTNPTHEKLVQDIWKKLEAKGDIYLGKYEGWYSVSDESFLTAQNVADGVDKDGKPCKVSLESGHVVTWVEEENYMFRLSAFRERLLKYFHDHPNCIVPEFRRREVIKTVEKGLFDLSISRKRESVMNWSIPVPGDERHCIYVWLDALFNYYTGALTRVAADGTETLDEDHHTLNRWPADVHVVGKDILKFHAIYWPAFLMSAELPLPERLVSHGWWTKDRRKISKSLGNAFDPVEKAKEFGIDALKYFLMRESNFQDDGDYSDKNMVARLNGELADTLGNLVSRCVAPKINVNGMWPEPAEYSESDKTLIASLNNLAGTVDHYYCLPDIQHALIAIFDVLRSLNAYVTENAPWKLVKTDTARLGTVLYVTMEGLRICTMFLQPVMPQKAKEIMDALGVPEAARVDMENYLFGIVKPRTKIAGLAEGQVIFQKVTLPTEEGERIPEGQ

LdMetRS: 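Methionyl-tRNA synthetase (putative), Leishmania donovani (UniProt E9BF75). Primary screen of methionyl-tRNA synthetase; the read-out is not stated. The test concentration is not given. The values are filed as inhibition. About 68,000 compounds were tested under these conditions; 0.035% (about 24) showed 50% or more at least once.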
Mtb heat-shock: 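Assay on Mycobacterium tuberculosis, filed only as a heat shock assay from Cornell; the read-out is not stated. The concentration is filed as 10 mM, unlikely as a test dose, so the dose is not known. Higher reads as stronger inhibition (inferred: compounds with an IC50 in retests scored well above the rest). About 69,000 compounds were tested under these conditions; 1.4% (about 930) showed 50% or more at least once.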

All values are in %. How 0% and 100% were set is not recorded. Most values in the screen are low, and negative values occur. The compounds are a random part of those screened. A dash means the value is not listed here; it may have been measured.

SMILES,LdMetRS,Mtb heat-shock
O=C(NCc1sc2ccccc2c1Cl)c1cc2n(n1)CCNC2,13.62,-1.012
CNS(=O)(=O)c1ccc(CNC(=O)N2CCOC(C)C2)cc1 (centres undefined),8.871,-14.45
CC(=O)N1[C@H](Cn2cncn2)C[C@@H]2CN(Cc3ccccn3)CC[C@@H]21,5.537,-
Cc1ccc(C(=O)NC2CC2)c(-n2cnnn2)c1C,5.376,1.949
CN1CC(=O)N(c2cccc(F)c2)CC12CCN(Cc1ccncc1)C2 (centres undefined),10.64,-
Cc1c(C(=O)N2CCCOCC2)nnn1-c1cccc2cnccc12,7.483,-0.1909
Cc1nc(CN2CC3(CCN(c4ncccn4)C3)CC2=O)cs1.O=C(O)C(F)(F)F (centres undefined),-,-14.05
CCS(=O)(=O)NCCNc1c(C#N)cnc2c(C)cc(F)cc12,13.65,5.006
Cc1ccc(C(=O)N(C)Cc2c(C)noc2C)c(=O)[nH]1,13.17,7.017
[H][C@@]12CS(=O)(=O)C[C@]1([H])N(C(=O)c1cn3ccsc3n1)CCN2CC1CC1,-,-17.5
CN(C)CCOCc1cncc2c1CCN(C1CCOC1)C2.O=C(O)C(F)(F)F.O=C(O)C(F)(F)F.O=C(O)C(F)(F)F (centres undefined),-,9.987
Cc1ccc(CN2CCN(c3cc(NCCO)ncn3)CC2CCO)o1 (centres undefined),3.621,-22.26
CCn1cc(CNCC(c2ccc(C)s2)N2CCOCC2)cn1 (centres undefined),2.198,-13.46
Cc1cc(=O)n(C)cc1NC(=O)Cc1cccc(F)c1,14.25,9.366
Cc1nn(C)cc1-c1cncn1CCN(C)C1CCCC1,14.29,-
Cc1noc(C2CCC3(CCN(C(=O)c4cnn(C)c4)CC3)O2)n1 (centres undefined),8.122,1.913
Cc1cc(C(C)C(=O)N2CCCN(Cc3cscn3)CC2)c(C)o1 (centres undefined),7.143,-0.03823
O=C(NCc1nccn1CCc1ccccc1)NCC1(O)CCC1,-13.81,-6.484
O=C(c1ccc(=O)[nH]c1)N1CCC(Oc2cccc(C(F)(F)F)c2)CC1,8.207,-1.6
CS(=O)(=O)c1ccc(CNC(=O)N2CCC(C(N)=O)CC2)cc1,21.13,-9.356
CCn1nc(C(C)C)cc1C(=O)NCc1nc2ccc(OC)cc2[nH]1,15.66,-0.15
CCNC(=O)[C@@H]1C[C@H](NC(=O)c2cc(CC)n[nH]2)CN1Cc1ccsc1,16.82,-7.035
C1CCCN(c2nc(C3CC3)no2)CC1,15.22,13.14
Cc1cnn(CCC(=O)N2CCN(c3ncccc3Cl)CC2)c1,19.44,-14.65
CCN(C(=O)NCCc1ccccc1Cl)C(C)CS(C)(=O)=O (centres undefined),1.761,-0.3298
Cc1c(C2SCC(=O)Nc3c2cnn3C(C)(C)C)cnn1C (centres undefined),6.452,1.585
COC(=O)c1cccc2nc([C@H]3CCN(Cc4ccccc4C)C3)oc12,5.263,-35.4
CC(C)Cc1cc(C(=O)N2CC(OCc3ccccc3F)C2)n(C)n1,4.8,-23.73
CCN(CC)C(=O)CCNc1cncc(-n2nc(C)cc2C)n1,13.75,-28.48
[H][C@@]12CN(Cc3ccc(S(C)(=O)=O)cc3)C[C@]1([H])OCC(=O)N2CC(N)=O,-,-7.783
Cc1nnc([C@@]23CCO[C@@H]2CCN(S(=O)(=O)c2ccccc2)C3)o1,9.87,-
c1cnc(N2CCC3(COCc4cnc(-c5cccnc5)nc43)C2)nc1 (centres undefined),-1.01,-
[H][C@@]12C[C@H](C(=O)N(C)C)[C@@]([H])(CN(S(=O)(=O)CC)C1)O2,-,9.943
CCN1CCN(C)C(=O)C12CCN(Cc1cccc(C)c1)CC2,2.222,-
CCn1cc(NC(=O)C2CCN(Cc3ccccc3C#N)CC2)cn1,16.67,-1.695
Cc1ccc(N2CCCC3(CCN(C(=O)NC4CCCC4)C3)C2)nn1 (centres undefined),16.25,8.142
[H][C@@]12CC[C@H](Oc3cccc(F)c3)[C@]1([H])CN(C(=O)c1cnco1)C2,-,11.41
[H][C@@]12CCC(=O)N(CCCSC)[C@]1([H])CCN(Cc1ncc[nH]1)C2,-,-21.52
CN(C)c1ncnc2c1CCN(S(=O)(=O)c1cccc(Cl)c1Cl)C2,13.49,5.143
O=C(NCc1ccccn1)[C@@H]1CC[C@@H]2[C@@H](CCN2c2ncc(F)cn2)O1,12.64,-
COc1ccccc1-c1ncc(CN2CCC3(CCNCC3)CC2)cn1,9.044,-6.292
Cc1nc(C(C)(C)NCc2ncc(C(C)C)o2)sc1C,9.409,47.46
N[C@@H]1CCC[C@@H](Oc2ccc(F)cc2Oc2cccc(F)c2)[C@@H]1O,10.29,1.479
CCc1cc(C(=O)N2CCCC2c2nc(O)cc(CC)n2)on1 (centres undefined),13.56,7.006
COc1cccc(CN(C)C(=O)NCc2c(C)cc(C)[nH]c2=O)c1,25.14,-11.71
O=S(=O)(CC1CC1)c1ncc(CN2CCSCC2)n1CC1CCCO1 (centres undefined),16.1,1.814
Cc1nn(C)c2c(=O)n(C(C)C)c(NCC3CCCO3)nc12 (centres undefined),15.79,-6.477
Cc1ccc(N2CCCC(NCCCS(C)(=O)=O)C2)nn1 (centres undefined),10.26,-27.47
CCCN1CCCn2nc(CNS(=O)(=O)c3cnn(CC)c3)cc2C1,7.357,0.1455
CCC(C)NC(=O)Nc1cccc(OCCCC#N)c1 (centres undefined),12.01,-16.21
Cn1nc(C2CCCN(Cc3ccc(F)c(F)c3)C2)c2nccnc21 (centres undefined),4.688,-
O=C(CCc1c(F)cccc1F)NS(=O)(=O)c1ccc2c(c1)OCCO2,14.04,-2.347
Cc1[nH]ncc1C(=O)NCC(CO)Cc1ccc(Cl)cc1 (centres undefined),17.03,1.06
c1ccc(CN(Cc2cccc3cnccc23)CC2CCCO2)nc1 (centres undefined),7.444,13.24
OC1CN(Cc2cccc(N3CCOCC3)c2)Cc2ccccc21 (centres undefined),19.88,-7.571
CCN(CC)C(=O)[C@@H]1C[C@H](N)CN1c1noc(-c2ccccc2)n1,20.5,8.202
CCc1nc(NS(=O)(=O)c2cc(C)c(F)cc2Cl)no1,2.448,-17.24
CC(=O)NCCOc1c(C)cccc1C,10.6,11.94
Cc1ccc(CN2Cc3ccccc3O[C@]3(CC[C@H](CO)CC3)C2)o1.Cl,-,-44.64
Oc1cccc(CN2CCN(C3CCc4ccccc4C3)CC2)c1 (centres undefined),2.35,-18.43
COc1cc(F)c(NCc2nc3ccccc3n2C)cc1OC,17.96,-19.84
Nc1ccnc(N2CCC(CCc3ccccc3)(C(=O)O)CC2)n1,10.43,-18.1
CCCC1CCCN(C(=O)CNC(=O)c2ccoc2C)CC1 (centres undefined),5.759,8.778
O=C(O)C(F)(F)F.O=C(O)C(F)(F)F.c1cncc(-c2ncnc3c2CCN(Cc2cccs2)CC3)c1,-,-18.81
CN(C)S(=O)(=O)N1CCC2(COCc3cnc(NCC4CC4)nc32)C1 (centres undefined),5,-38.08
Cn1ccnc1COc1ccc(CO)cc1,7.692,5.981
Cn1cnc(-c2ccc(F)cc2)c1NC(=O)CCNC(=O)C(C)(C)C,16.62,2.814
Cl.[H][C@@]12CCN(C3CCCCC3)C[C@]1([H])[C@@H](c1ccsc1)CN2C(=O)C(C)(C)C,-,6.818
CCN(c1ccsc1C(=O)N1CCC(C)CC1)S(=O)(=O)c1ccccc1,8.732,9.609

The last 4 entries again:

* Cn1ccnc1COc1ccc(CO)cc1 : LdMetRS: 7.692%; Mtb heat-shock: 5.981%
* Cn1cnc(-c2ccc(F)cc2)c1NC(=O)CCNC(=O)C(C)(C)C : LdMetRS: 16.62%; Mtb heat-shock: 2.814%
* Cl.[H][C@@]12CCN(C3CCCCC3)C[C@]1([H])[C@@H](c1ccsc1)CN2C(=O)C(C)(C)C : Mtb heat-shock: 6.818%
* CCN(c1ccsc1C(=O)N1CCC(C)CC1)S(=O)(=O)c1ccccc1 : LdMetRS: 8.732%; Mtb heat-shock: 9.609%